According to PubChem BioAssay AID1259354 (Paczesny and Yang Labs, IUPUI and University of Michigan, 2018):
Values joined by “and” are separate entries in the source; they are usually repeats but may differ in a detail not shown here. Equal entries are not always repeated. Hit rate of the full screen: of about 78,000 compounds, about 1,800 (2.3%) were called active. The shares of active, inactive and inconclusive entries below differ from those in the screen. No stated cut-off is given here; in the data, active means inhibition above about 30%; inconclusive means mostly about 10% to 28%; inactive means weaker than that.

By UniProt entry, the sequences of proteins in these tests, tags left out. Where a name states a change or a piece, a line headed by the entry shows the natural chain unless it says otherwise.
UniProt Q01638: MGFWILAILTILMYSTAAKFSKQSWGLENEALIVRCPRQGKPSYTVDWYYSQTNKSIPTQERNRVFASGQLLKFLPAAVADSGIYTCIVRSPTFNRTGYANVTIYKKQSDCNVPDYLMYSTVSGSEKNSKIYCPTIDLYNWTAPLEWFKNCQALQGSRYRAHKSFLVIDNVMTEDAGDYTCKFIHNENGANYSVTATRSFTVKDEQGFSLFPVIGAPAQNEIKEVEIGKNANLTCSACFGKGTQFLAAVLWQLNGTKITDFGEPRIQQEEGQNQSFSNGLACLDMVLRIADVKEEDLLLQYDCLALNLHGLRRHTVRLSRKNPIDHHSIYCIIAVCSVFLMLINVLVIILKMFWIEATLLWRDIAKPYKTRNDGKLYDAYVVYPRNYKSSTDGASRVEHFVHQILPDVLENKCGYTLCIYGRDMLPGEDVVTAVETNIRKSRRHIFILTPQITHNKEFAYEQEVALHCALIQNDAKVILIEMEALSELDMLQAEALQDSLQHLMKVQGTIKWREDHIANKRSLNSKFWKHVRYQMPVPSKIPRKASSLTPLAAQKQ

What follows are compounds tested against Interleukin-1 receptor-like 1 (Homo sapiens) (UniProt Q01638) (assay: blocks human ST2 binding to IL-33, primary screen, biochemical, AlphaLISA (AID 1259354)). Settings: AlphaLISA ST2-Fc/biotin-IL-33 interaction, 1 h; at 17 µM, stronger effect = higher value.

| SMILES | inhibition |
| --- | --- |
| Cc1ccc(O)c(N=Cc2ccc(Cl)c(Cl)c2)c1 | inconclusive: 20% |
| Clc1ccc(OC2=C(c3ccccc3)N3CCN=C3S2)cc1 | active: 45% |
| O=C(COc1ccc([N+](=O)[O-])cc1)N(c1ccccc1)C1C=CS(=O)(=O)C1 (stereo not drawn) | inactive |
| Cc1cc(C)cc(OCCN2CCCC2)c1 | inconclusive: 12% |
| Cc1ccc(S(=O)(=O)Nc2ccc3oc(=O)sc3c2)cc1[N+](=O)[O-] | inconclusive: 17% |
| O=C(Nc1cccc(Cl)c1Cl)c1cc2c(=O)n3ccccc3nc2s1 | inconclusive: 10% |
| CC1(C)CC(N2C(=O)OC(C)([C@H]3CC4C=CC3C4)C2(C)O)CC(C)(C)N1 (stereo partly drawn) | active: 98% |
| O=C(NC1CC(=O)N(c2ccccc2)C1)c1cccs1 (stereo not drawn) | inconclusive: 23% |
| CCc1ccccc1N(CC(=O)NC(C)(C)C)S(=O)(=O)c1ccccc1 | inactive |
| CCCc1nc(CNC(=O)C2CC(C)=NO2)cs1 (stereo not drawn) | inconclusive: 19% |
| CN1CC(=O)N2C[C@H](NC(=O)c3cccc(-c4ncc[nH]4)c3)C[C@H]2C1=O | inconclusive: 12% |
| Cc1ccc2[nH]c3nc(NN)nnc3c2c1 | inconclusive: 10% |
| CCOC(=O)c1ccc(N2C(=O)C3C4C=CC(CC4)C3C2=O)cc1 (stereo not drawn) | inconclusive: 12% |
| CCOc1ccccc1C1C(C(=O)OC2CCCCC2)=C(C)NC2=C1C(=O)CC(C)(C)C2 (stereo not drawn) | inactive |
| C=CCOc1ccc(C=Nc2ccc(Br)cc2)c(O)c1 | inconclusive: 21% |
| O=C1OC(c2ccc3c(c2)OCO3)=N/C1=C\c1ccccc1Cl | inactive |
| CNc1nc(CN2CCOC(c3ccc(Cl)c(Cl)c3)C2)cs1 (stereo not drawn) | inconclusive: 14% |
| Cc1c(O)cccc1C(=O)N1C[C@H](N)C[C@H]1C(=O)NC(C)C | inconclusive: 14% |
| CCn1cc(C(=O)NC2CCCC2)c(=O)c2cc(S(=O)(=O)N3CCC(C)CC3)ccc21 | inactive |
| COc1ccc2nc(N3CCC(C(=O)NCCCN4CCN(C)CC4)CC3)sc2c1 | inconclusive: 12% |
| Cc1nc(C(=O)N(Cc2ccc(F)cc2)CC2CCCO2)cs1 (stereo not drawn) | inconclusive: 17% |
| CCOc1ccccc1CNc1ccc2c(c1)ncn2C(C)(C)C | inconclusive: 14% |
| C#C[C@]1(O)CC[C@H]2[C@@H]3CCC4=Cc5oncc5CC4(C)[C@H]3CCC21C (stereo partly drawn) | inactive |
| CCN1C(=O)C2CCCCN2c2ccc(C(=O)Nc3ccc(C(C)C)cc3)cc21 (stereo not drawn) | inconclusive: 10% |

| SMILES | inhibition |
| --- | --- |
| CCCCN(CC)CCNC(=O)c1cc2cc3ccc(OC)cc3nc2s1 | inconclusive: 11% |
| O=C1c2ccccc2C(=O)N1c1ncn[nH]1 | inactive |
| CCn1cc(C(=O)NCCN2CCCC2)c(=O)c2cc(S(=O)(=O)N3CCOCC3)ccc21 | inconclusive: 13% |
| O=C(CN1CCCC(Nc2ccc(F)cc2)C1)N1CCCCCC1 (stereo not drawn) | inconclusive: 20% |
| O=C(O)C(Cc1c[nH]c2ccccc12)N1C(=O)C2CCCCC2C1=O (stereo not drawn) | inconclusive: 15% |
| CN1CCN(CCCNC(=O)c2ccc3c(Cl)c4c(nc3c2)CCCC4)CC1 | inconclusive: 20% |
| COc1ccc(C2Nc3ccccc3-c3nnc(SC)nc3O2)cc1O (stereo not drawn) | inactive |
| O=[N+]([O-])c1cccc(C=Nc2ccc3oc(-c4cccc(F)c4)nc3c2)c1 | inconclusive: 13% |
| N#Cc1ccc(-c2cccnc2)nc1SCC(=O)c1ccc(Br)cc1 | inconclusive: 25% and inconclusive: 11% |
| COc1ccccc1C(=O)Nc1cccc(-c2nc3ncccc3o2)c1 | inactive |
| CC(C)c1nc2cccnc2n1CCN1CCNCC1 | inactive |
| CC1=C(C(=O)OCCc2ccccc2)C(c2cccs2)NC(=O)N1C (stereo not drawn) | inactive |
| CC(C)Cc1nc(CN(C)C2CCC3(CCNCC3)CC2)no1 | inconclusive: 18% |
| CCCCC(=O)Nc1cccc(OCc2cc(=O)n3cc(Cl)ccc3n2)c1 | inactive |
| Cc1nnsc1CN(C)Cc1cc(C(C)(C)C)ccc1O | inconclusive: 19% |
| CC(=O)C1=C(C)OC(N)=C(C#N)C1c1ccc([N+](=O)[O-])cc1 (stereo not drawn) | inconclusive: 22% |
| Cc1cc(C)cc(CCC(=O)N2[C@@H]3CC[C@H]2CC(O)C3)c1 (stereo partly drawn) | inconclusive: 16% |
| CC1=C(C(=O)OC2CCCCC2)C(c2cccc(C)c2)n2nnnc2N1 (stereo not drawn) | inactive |
| O=C(c1ccc(F)cc1)N1CCN(C(=O)c2ccc(F)cc2)CC1 | inconclusive: 15% |
| CN1Cc2[nH]cnc2C[C@H]1c1nc(-c2ccc3ccccc3c2)no1 | inconclusive: 14% |
| Cn1c(NCc2cccnc2)nc2c1c(=O)n(Cc1ccccc1F)c(=O)n2C | inconclusive: 23% |
| COc1ccc(-c2nnc3c4ccccc4c(Cl)nn23)cc1 | inconclusive: 14% |
| CC(C)Cc1nnc(NC(=O)Cc2ccc(F)cc2)s1 | inconclusive: 17% |
| COc1cc2ccccc2cc1C(=O)Nc1sc2c(c1C(N)=O)CC(C)CC2 (stereo not drawn) | inconclusive: 10% |

| SMILES | inhibition |
| --- | --- |
| COC(=O)C1C(=O)C2=C(CC1C)NC(C)=C(C(=O)OC1CCCCC1)C2c1ccc(O)cc1 (stereo not drawn) | inactive |
| CN(C)C[C@H]1O[C@@H](CO)[C@@H](O)[C@H]1N1CCN(c2ncccn2)CC1 | inconclusive: 15% |
| COc1cccc(-c2nnnn2[C@H]2CO[C@H]3[C@@H]2OC[C@@H]3NC(=O)c2ccc(C)cc2)c1 | inconclusive: 10% |
| Cc1ncsc1CCCNC(=O)c1cnn2c1CCCC2 | inactive |
| CCn1ncnc1CN1CCN(c2cc(OC)ncn2)CC1 | inconclusive: 10% |
| O=C(Cn1c(=O)[nH]c2ccsc2c1=O)NCc1cccs1 | inactive |
| CCN(CC)c1ccc2c(c1)OC(N)=C(C#N)C2c1cccnc1 (stereo not drawn) | inconclusive: 17% |
| CCN(Cc1ccncc1)S(=O)(=O)NCc1ccccc1 | inconclusive: 14% |
| CN(C)C(=O)N1CCC(C(=O)N2CCCC(N(C)CCc3ccccc3)C2)CC1 (stereo not drawn) | inconclusive: 14% |
| CC(C)(C)NS(=O)(=O)Nc1ccccc1 | inactive |
| COc1ccc(CN(C(=O)CCn2nnnc2C)C(C)C)c2ccccc12 | inconclusive: 24% |
| COCCn1c(=O)[nH]c2cc(C(=O)OC)ccc2c1=O | inconclusive: 13% |
| CC(NC(=O)c1cc2cc(Br)ccc2oc1=O)c1ccccc1 (stereo not drawn) | inconclusive: 13% |
| CN(Cc1ccccc1)C(=O)CCN1C(=O)c2cccc([N+](=O)[O-])c2C1=O | inconclusive: 15% |
| C[C@@H]1O[C@@H](Oc2c(-c3ccc(O)cc3)oc3cc(O)cc(O)c3c2=O)[C@H](O[C@@H]2O[C@H](COC(=O)/C=C/c3ccc(O)cc3)[C@@H](O)[C@H](O)[C@H]2O)[C@H](O)[C@H]1O | inconclusive: 16% |
| CCc1nc(CN(C)C(CC)c2cccnc2)c(C)[nH]1 (stereo not drawn) | inactive |
| CCNCC(O)CN1CCC(C)CC1 (stereo not drawn) | inactive |
| O=C(c1ccccc1-c1ncn[nH]1)N1CCOC(c2ccc(Cl)cc2)C1 (stereo not drawn) | inconclusive: 23% |
| O[C@@H]1CN(Cc2cccn2-c2ncccn2)CC[C@H]1c1ccc(F)cc1 | inconclusive: 11% |
| O=C1C(Oc2ccccc2)C(c2ccc3c(c2)OCO3)N1c1cccc(C(F)(F)F)c1 (stereo not drawn) | inactive |
| CC1CCC(NC(=O)c2ccc(CS(=O)(=O)c3ccc(Br)cc3)o2)CC1 (stereo not drawn) | inactive |
| CCN(CC)C(=O)C1=C(C)Nc2nc3ccccc3n2C1c1ccccc1Cl (stereo not drawn) | inactive |
| COc1cc(C(=O)N2CCN(Cc3ccc(Br)cc3)CC2)cc(OC)c1OC | inconclusive: 11% |
| COc1cccc(OC)c1C(=O)N=c1sc2cc([N+](=O)[O-])ccc2n1C | inconclusive: 19% |

| SMILES | inhibition |
| --- | --- |
| O=C(NCc1ccc(F)cc1Cl)c1ccc2c(c1)ncn2C1CCCC1 | inactive |
| COc1ccc(C(O)c2nc3ccccc3n2C(C)C)cc1OC (stereo not drawn) | inconclusive: 18% |
| Cc1c(NC(=O)c2ccc([N+](=O)[O-])cc2Cl)cccc1-c1nc2cc(Cl)ccc2o1 | inactive |
| Cc1ccc(C2CC(c3cccc(Br)c3)n3ncnc3N2)cc1 (stereo not drawn) | inconclusive: 15% |
| Cc1ccc(Nc2c(-c3ccc(N(C)C)cc3)nc3cnccn23)cc1 | inconclusive: 20% |
| Cc1nc2c(c(NC3CCN(S(=O)(=O)c4ccccc4)CC3)n1)CNC2 | inconclusive: 10% |
| CC(=O)c1c(-c2ccccc2)c2cc(Cl)ccc2[nH]c1=O | inconclusive: 15% |
| Cn1ccnc1SCC(=O)Nc1ccccc1C(F)(F)F | inactive |
| CN1C(=O)CC(CC(=O)N2CCC(c3ccncc3)CC2)(c2ccc(-c3ccccc3)cc2)C1=O (stereo not drawn) | inconclusive: 16% |
| CCOC(=O)N1CCC(NC(=O)C2CC23CCN(C(=O)C(c2ccccc2)C2CCCC2)CC3)CC1 (stereo not drawn) | inconclusive: 10% |
| CCOC(=O)C1C(=O)C=C(c2cccs2)CC1c1ccccc1Cl (stereo not drawn) | inconclusive: 19% |
| O=C(Nc1cccc2ccccc12)O[C@@H]1CO[C@H]2[C@@H]1OC[C@@H]2Nc1nccc(-c2cccc(F)c2)n1 | inconclusive: 19% |
| CC12CC(c3ccccc3O1)N(C(=O)c1cccs1)C(=O)N2c1ccc(F)cc1 (stereo not drawn) | inactive |
| COc1ccc2cc3cc(C(=O)Nc4cc(Cl)c(OC)cc4OC)oc3nc2c1 | inconclusive: 27% |
| O=C(NC[C@H]1O[C@@H](CO)[C@@H](O)[C@H]1N1CCN(c2cccc(C(F)(F)F)c2)CC1)c1ccccc1 | inconclusive: 13% |
| COCCNc1nc2cc(C(=O)N3CCOC(C(F)(F)F)C3)ccc2n1C (stereo not drawn) | inactive |
| O=C(NCCN1CCN(c2ccccc2)CC1)c1cccn2c(=O)c3ccccc3nc12 | inconclusive: 16% |
| CCC(=O)NC(C)c1nc2ccccc2n1CC (stereo not drawn) | inconclusive: 10% |
| Cc1cccn(CC(=O)c2ccc(-c3ccccc3)cc2)c1=N | inactive |
| COc1ccc(N2CCCS2(=O)=O)cc1NC(=O)c1ccc(Br)o1 | inconclusive: 11% |
| COc1ccccc1Oc1c(F)c(OC)nc(OC)c1F | inactive |

Reformatted: entries from further up
SMILES	inhibition
COCCNc1nc2cc(C(=O)N3CCOC(C(F)(F)F)C3)ccc2n1C (stereo not drawn)	inactive
O=C(NCCN1CCN(c2ccccc2)CC1)c1cccn2c(=O)c3ccccc3nc12	inconclusive: 16%
CCC(=O)NC(C)c1nc2ccccc2n1CC (stereo not drawn)	inconclusive: 10%
Cc1cccn(CC(=O)c2ccc(-c3ccccc3)cc2)c1=N	inactive
